Test results reported in PubChem BioAssay AID540276 (National Center for Advancing Translational Sciences (NCATS), 2011).
Screen size: about 300,000 compounds; about 5,400 (1.8%) were called active. Inconclusive means that the source gave no clear call. Such entries were picked first, then a sample of the others. Calls follow the shape of the full dose curve; tested in HEK293 cells. Potencies beside an inconclusive call are fits to weak or partial responses and may not hold up.

Assay: qHTS for inhibitors of binding or entry into cells for Marburg Virus
Conditions: Marburg virus pseudotyped entry inhibition, cell reporter; series mostly up to 37.8 µM
Potency is read from the fitted curve at half-maximal effect.

SMILES | Potency
Cc1ccc(SCCC(=O)NCC2CCCO2)cc1 (stereo unspecified) | inactive
C/C(=N/Nc1cc(-c2ccccc2)nc(-c2ccccc2)n1)c1ccc(O)cc1 | inconclusive: 29.1 µM [inhibitor, single point]
CCC(C)(C)C1CCC2(CC1)NC(=O)N(CC(=O)NCCc1c[nH]c3ccccc13)C2=O (stereo unspecified) | inconclusive: 5.62 µM [activator, single point]
CC(=NNC(=S)Nc1cccc(C)c1)c1ccccn1 | inconclusive: 0.1 µM [inhibitor, full curve, poor fit]
Cc1c(C(=O)OCC2CCCO2)[nH]c2c1C(=O)CC(c1ccc(N(C)C)cc1)C2 (stereo unspecified) | inactive
O=C(Nc1cccnc1Cl)c1cccs1 | inactive
Cc1cc(SCC(=O)Nc2nsc(-c3ccc(C(C)(C)C)cc3)n2)nc2ccccc12 | inactive
Cc1cccc(C(=O)O/N=C2\CCCc3ccccc32)c1 | inactive
Cc1ccc(NC(=O)N(C)c2ccccc2)cc1 | inconclusive: 35.5 µM [activator, single point]
COc1ccc(/C(O)=C2/C(=O)C(=O)N(c3ncccn3)C2c2ccc(OC)c(OC)c2)cc1 (stereo unspecified) | inactive
CC(C)CC(NC(=O)OC(C)(C)C)C(=O)NCc1ccccc1 (stereo unspecified) | inconclusive: 5.01 µM [activator, full curve, poor fit]
Cc1nc2ccc(Cl)cc2c(=O)n1-c1cccc(Cl)c1 | inconclusive: 6.31 µM [inhibitor, single point]
Cc1ccc(Cl)cc1NC(=S)N(CCCN1CCOCC1)Cc1ccco1 | inconclusive: 22.4 µM [inhibitor, single point]
O=C(Nc1ccc2c(c1)CCC2)c1cccs1 | inconclusive: 0.891 µM [activator, partial curve, poor fit]
COC(=O)C(Cc1ccc(OC(=O)c2ccccc2Cl)cc1)N1Cc2ccccc2C1=O (stereo unspecified) | inconclusive: 0.501 µM [activator, full curve, poor fit]
Cc1cccc(-c2nnc(NC(=O)c3ccco3)s2)c1 | inactive
CC(Oc1ccc(F)cc1)C(=O)N(CCC1=CCCCC1)c1c(N)n(Cc2ccccc2)c(=O)[nH]c1=O (stereo unspecified) | inconclusive: 35.5 µM [inhibitor, single point]
COC(=O)[C@H]1O[C@@H](c2cc(OC)c(C)c(OC)c2O)[C@H](C)[C@@H](O)[C@@H]1C | inconclusive: 2.66 µM [activator, single point]
CCc1cccc(NC(=O)C(Cc2ccccc2)NS(=O)(=O)c2ccc3c(c2)c(=O)n(C)c(=O)n3C)c1 (stereo unspecified) | inactive
Cc1ccccc1/C=N/n1c(-c2cc(-c3ccccc3)n[nH]2)n[nH]c1=S | inconclusive: 5.01 µM [activator, single point]
COc1ccc(NS(=O)(=O)c2cccc(C(=O)N/N=C(\C)c3ccncc3)c2)cc1 | inconclusive: 0.13 µM [activator, partial curve, poor fit]
COc1ccccc1C(=O)N1CC2(C)CC1CC(C)(C)C2 (stereo unspecified) | inconclusive: 35.5 µM [inhibitor, single point]

SMILES | Potency
CCOC(=O)Cc1cc(=O)n2[nH]c(-c3ccc(Cl)cc3)cc2n1 | inactive
O=C(/C=C/c1cn(-c2ccccc2)nc1-c1ccccc1)Nc1ccc(C(=O)O)cc1 | inactive
N=C1SCC(=O)N1c1ncc(Cc2ccccc2Cl)s1 | inconclusive: 35.5 µM [inhibitor, single point]
Cc1cc(C)c(-c2csc(NC(=O)CCCc3nc4ccccc4c(=O)[nH]3)n2)c(C)c1 | inconclusive: 35.5 µM [inhibitor, partial curve, poor fit]
CCC(CC)NCc1ccc2c(c1)c1ccccc1n2CC | inconclusive: 29.1 µM [inhibitor, single point]
COCCNC(=S)NN=C1CCCCC1 | inconclusive: 35.5 µM [inhibitor, single point]
CCOc1ccc(-c2n[nH]c(C)c2-c2ccccc2OC)c(O)c1 | inconclusive: 22.4 µM [inhibitor, single point]
CCOC(=O)C(NC(=O)Nc1ccc(O)cc1)(c1ccccc1)C(F)(F)F (stereo unspecified) | inconclusive: 1.26 µM [activator, single point]
C=CCn1c(-c2sc3nc(C)cc(C)c3c2N)n[nH]c1=S | inactive
O=C(Cn1nnc2ccccc2c1=O)N[C@@H](Cc1ccccc1)C(=O)O | inconclusive: 11.2 µM [activator, partial curve, poor fit]
CCCc1cc(=O)[nH]c(SCC(=O)N2N=C(c3ccc(Cl)cc3)CC2c2ccco2)n1 (stereo unspecified) | inconclusive: 1.16 µM [inhibitor, single point]
COC(=O)CCC(=O)OC1(C)C(=O)C=C2C=C(C3CC3)N(Cc3ccco3)C=C2C1=O (stereo unspecified) | inactive
COc1ccc(CN(C)CC(O)COc2ccc(C(=O)c3ccccc3)cc2)c(OC)c1OC (stereo unspecified) | inconclusive: 7.08 µM [inhibitor, partial curve, poor fit]
Cc1cc(C)c(C#N)c(OCc2ccc(Cl)nc2)n1 | inconclusive: 31.6 µM [activator, single point]
CCOC(=O)C(C)Sc1snnc1C (stereo unspecified) | inconclusive: 0.164 µM [inhibitor, partial curve, poor fit]
Cc1ccc2nc(NC(=S)NC(=O)c3ccco3)sc2c1 | inactive
Cc1ccc(OCC(=O)NNC(=S)NC(=O)C(C)(C)C)c(Br)c1 | inconclusive: 10 µM [inhibitor, partial curve, poor fit]
O=C(NCCC1CCCCN1S(=O)(=O)c1ccc(Cl)cc1)C(=O)NCc1ccco1 (stereo unspecified) | inconclusive: 17.8 µM [inhibitor, single point]
Cc1nnc(SCC(=O)N(C)c2c(N)n(Cc3ccccc3)c(=O)[nH]c2=O)n1Cc1ccccc1 | inconclusive: 14.1 µM [activator, partial curve, poor fit]
CCOC(=O)c1cnn(-c2nc(-c3ccccc3)cs2)c1C(F)(F)F | inactive
O=c1oc2ccccc2cc1-c1csc(Cc2nc(-c3ccc(Cl)cc3)cs2)n1 | inconclusive: 2.24 µM [inhibitor, full curve, poor fit]
CC(=O)Nc1ccc(S(=O)(=O)NCC2CCC(C(=O)N3CCCCCC3)CC2)cc1 (stereo unspecified) | inactive

SMILES | Potency
COc1ccccc1CNC(=O)COC(=O)CSc1ccc(F)cc1 | inactive
COCCNc1ncnc2c1cnn2Cc1ccc(Cl)cc1 | inconclusive: 3.16 µM [inhibitor, partial curve]
Cc1nn(-c2ccccc2)c(C)c1/C=N/NC(=O)CSc1nc2ccccc2c(=O)n1-c1ccc(Br)cc1 | inconclusive: 2.82 µM [inhibitor, partial curve, poor fit]
Cc1ccc(S(=O)(=O)N2CCOCC2)cc1NC(=O)CNc1ccccc1N1CCCC1=O | inactive
O=[N+]([O-])c1ccc(N2CCNCC2)c(Cl)c1 | inactive
O=C(COc1ccc(Cl)cc1)Nc1ccc2c(c1)CCC2 | inactive
Cc1cccn2c(=O)c3cc(C(=O)NC4CCCC4)c(=N)n(C4CCCC4)c3nc12 | inconclusive: 17.8 µM [inhibitor, partial curve, poor fit]
Cc1nnc(-c2cccc(Br)c2)c2cn(-c3cccc(Br)c3)nc12 | inconclusive: 10 µM [inhibitor, single point]
COC(=O)c1ccc(CN2CCCC(C(=O)Nc3cccc(-n4cnnn4)c3)C2)cc1 (stereo unspecified) | inconclusive: 7.08 µM [inhibitor, full curve]
CCOC(=O)c1c(O)cc(C)cc1Nc1ccccc1 | inconclusive: 3.55 µM [activator, single point]
Cc1nc(-c2cccc(NC(=O)COc3ccc(Cl)cc3)c2)cs1 | active: 12.6 µM
Cc1ccc(S(=O)(=O)N2CCN(C(=S)NCc3ccc4c(c3)OCO4)CC2)cc1 | inconclusive: 35.5 µM [inhibitor, single point]
CC(C)N(c1ccccc1)c1ccc(NC(=O)C2CCCO2)cc1 (stereo unspecified) | inconclusive: 29.1 µM [inhibitor, partial curve, poor fit]
O=C(c1sc2cc(F)ccc2c1Cl)N1CCN(c2cccc(Cl)c2)CC1 | inconclusive: 3.98 µM [inhibitor, partial curve, poor fit]
CCCCc1cc2c(cn1)=C(OC(=O)C1CCCC1)C(C)(OC(=O)CC)C(=O)C=2 (stereo unspecified) | inconclusive: 0.237 µM [inhibitor, full curve]
O=C(N/N=C/c1ccc(N2CCCCC2)o1)C(O)(c1ccccc1)c1ccccc1 | inactive
CCOC(=O)C1=NN(c2ccc(OC)cc2)C2C(=O)N(c3ccccc3OC)C(=O)C12 (stereo unspecified) | inconclusive: 0.562 µM [inhibitor, partial curve, poor fit]
COc1cc(/C=C/C(=O)O)cc(S(=O)(=O)Nc2ccc(S(=O)(=O)N3CCCCC3)cc2)c1OC | inconclusive: 0.112 µM [inhibitor, full curve, poor fit]
CCOC(=O)c1ccc(NCn2c(=O)oc3ccccc32)cc1 | inconclusive: 29.1 µM [activator, single point]
Cc1ccc(S(=O)(=O)N2CCCCC2CCNC(=O)C(=O)NCCc2ccco2)cc1 (stereo unspecified) | inconclusive: 8.91 µM [inhibitor, partial curve, poor fit]
COc1ccc(/C(N)=N/OC(=O)N2CCOCC2)cc1 | inconclusive: 7.94 µM [inhibitor, partial curve, poor fit]
Cc1c(C(=O)NCCCN2CCOCC2)sc2ncnc(N3CCN(c4ccccc4)CC3)c12 | inconclusive: 35.5 µM [inhibitor, single point]

Twelve entries from above, in CSV form.
SMILES,Potency
Cc1ccc(S(=O)(=O)N2CCOCC2)cc1NC(=O)CNc1ccccc1N1CCCC1=O,inactive
O=[N+]([O-])c1ccc(N2CCNCC2)c(Cl)c1,inactive
O=C(COc1ccc(Cl)cc1)Nc1ccc2c(c1)CCC2,inactive
Cc1cccn2c(=O)c3cc(C(=O)NC4CCCC4)c(=N)n(C4CCCC4)c3nc12,"inconclusive: 17.8 µM [inhibitor, partial curve, poor fit]"
Cc1nnc(-c2cccc(Br)c2)c2cn(-c3cccc(Br)c3)nc12,"inconclusive: 10 µM [inhibitor, single point]"
COC(=O)c1ccc(CN2CCCC(C(=O)Nc3cccc(-n4cnnn4)c3)C2)cc1 (stereo unspecified),"inconclusive: 7.08 µM [inhibitor, full curve]"
CCOC(=O)c1c(O)cc(C)cc1Nc1ccccc1,"inconclusive: 3.55 µM [activator, single point]"
Cc1nc(-c2cccc(NC(=O)COc3ccc(Cl)cc3)c2)cs1,active: 12.6 µM
Cc1ccc(S(=O)(=O)N2CCN(C(=S)NCc3ccc4c(c3)OCO4)CC2)cc1,"inconclusive: 35.5 µM [inhibitor, single point]"
CC(C)N(c1ccccc1)c1ccc(NC(=O)C2CCCO2)cc1 (stereo unspecified),"inconclusive: 29.1 µM [inhibitor, partial curve, poor fit]"
O=C(c1sc2cc(F)ccc2c1Cl)N1CCN(c2cccc(Cl)c2)CC1,"inconclusive: 3.98 µM [inhibitor, partial curve, poor fit]"
CCCCc1cc2c(cn1)=C(OC(=O)C1CCCC1)C(C)(OC(=O)CC)C(=O)C=2 (stereo unspecified),"inconclusive: 0.237 µM [inhibitor, full curve]"
